Experimental data: patent US20250122304A1, “PRE-TARGETING” (Precirix N.V., priority 2022, published 2025)
No constants are given. Whether binding was seen depends on the method and setting. Some results given as binding are weak or reduced against the parent protein; the word gives no strength.

Sequences of proteins named here, by UniProt entry; tags and fusion partners are left off. A change or cut given only in a name is not applied to a line headed by its entry.
UniProt Q12884: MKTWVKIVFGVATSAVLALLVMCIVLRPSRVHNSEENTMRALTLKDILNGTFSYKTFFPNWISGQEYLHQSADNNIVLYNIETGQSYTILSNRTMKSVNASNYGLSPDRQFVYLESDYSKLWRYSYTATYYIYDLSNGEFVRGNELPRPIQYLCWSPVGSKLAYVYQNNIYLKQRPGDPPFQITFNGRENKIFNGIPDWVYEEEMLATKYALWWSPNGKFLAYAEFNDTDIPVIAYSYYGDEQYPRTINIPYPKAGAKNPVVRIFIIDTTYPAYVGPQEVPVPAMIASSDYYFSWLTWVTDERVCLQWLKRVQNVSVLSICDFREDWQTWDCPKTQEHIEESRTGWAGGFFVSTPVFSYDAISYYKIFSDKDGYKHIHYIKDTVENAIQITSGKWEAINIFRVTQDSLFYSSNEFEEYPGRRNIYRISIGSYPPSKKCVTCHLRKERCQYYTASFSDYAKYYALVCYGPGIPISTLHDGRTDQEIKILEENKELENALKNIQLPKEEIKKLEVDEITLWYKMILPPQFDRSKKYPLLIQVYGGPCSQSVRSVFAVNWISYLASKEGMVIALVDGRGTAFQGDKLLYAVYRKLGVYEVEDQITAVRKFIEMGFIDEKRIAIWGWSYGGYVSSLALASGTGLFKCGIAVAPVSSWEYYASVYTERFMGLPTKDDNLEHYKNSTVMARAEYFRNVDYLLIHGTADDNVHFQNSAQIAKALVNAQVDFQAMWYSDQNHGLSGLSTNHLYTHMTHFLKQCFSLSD

B1: VHH7 (VHH)
VHH: QVQLQESGGGLVQAGGSLRLSCTASGTFSGRNAMAWYRQAPGKRRELVAGIRSDDSTNYVDSVKGRFTISRDNAKNTVYLQMNSLRPEDTAVYYCNLWPPVIGAGFGSWGQGTQVTVSS
notes: Anti-FAP VHH, tested before TCO conjugation; also called unconjugated VHH7
B2: VHH8 (VHH)
VHH: QVQLQESGGGTVQPGGSLRLSCAASGISVSIASMAWYRQAPGKQRELVAGIISGGSTNYADSVKGRFTISRDNAKKVVLLQMNSLKPEDTAVYYCNTYPPFVGPGATATWGQGTQVTVSS
notes: Anti-FAP VHH, tested before TCO conjugation; also called unconjugated VHH8
B3: VHH9 (VHH)
VHH: QVQLQESGGGLVQSGGSLRLSCVASGSISSINAMGWYRQAPGNKREWVAGITSGGSTNYADAVLGRFSIFRDNPKNTVYLQMNSLKPEDTAVYYCNTWPPSTFGSWGQGTQVTVSS
notes: Anti-FAP VHH, tested before TCO conjugation; also called unconjugated VHH9
B4: TCO-VHH7 (VHH)
VHH: QVQLQESGGGLVQAGGSLRLSCTASGTFSGRNAMAWYRQAPGKRRELVAGIRSDDSTNYVDSVKGRFTISRDNAKNTVYLQMNSLRPEDTAVYYCNLWPPVIGAGFGSWGQGTQVTVSS
modifications: trans-cyclooctene (TCO) conjugated via TCO-NHS; site(s) and number not stated
notes: also called TCO conjugated VHH7; VHH7 post conjugation
B5: TCO-VHH8 (VHH)
VHH: QVQLQESGGGTVQPGGSLRLSCAASGISVSIASMAWYRQAPGKQRELVAGIISGGSTNYADSVKGRFTISRDNAKKVVLLQMNSLKPEDTAVYYCNTYPPFVGPGATATWGQGTQVTVSS
modifications: trans-cyclooctene (TCO) conjugated via TCO-NHS; site(s) and number not stated
notes: also called TCO conjugated VHH8; VHH8 post conjugation
B6: TCO-VHH9 (VHH)
VHH: QVQLQESGGGLVQSGGSLRLSCVASGSISSINAMGWYRQAPGNKREWVAGITSGGSTNYADAVLGRFSIFRDNPKNTVYLQMNSLKPEDTAVYYCNTWPPSTFGSWGQGTQVTVSS
modifications: trans-cyclooctene (TCO) conjugated via TCO-NHS; site(s) and number not stated
notes: also called TCO conjugated VHH9; VHH9 post conjugation

These binders were tested against human fibroblast activation protein (FAP) (human) (UniProt Q12884) (assay: BLI (Octet)).
For B1, the binding was “binds”.
B2 was tested, and the binding was “binds”.
For B3, the binding was “binds”.
With B4 the binding was “binds”.
For B5, the binding was “binds”.
For B6, the binding was “binds”.
